Laboratory results from US12571794B2, “Epigen AU/11: a natural matrix for restoring homeostasis in cancer cell-infiltrated tissue” (priority 2024, dated 2026).

Test system: activated sludge inoculum (non adapted microorganisms)
Assay: Ready biodegradability, manometric respirometry OECD 301F:1992

CC(=O)[O-].[Na+] [Sodium Acetate]
BOD value as % of the total (after 7 days): 78.77%
BOD value as % of the total (after 14 days): 88.31%
BOD Day 1 (reference substance 50 mg/L): 10.2 ppm
BOD Day 7 (reference substance 50 mg/L): 25.6 ppm
BOD Day 14 (reference substance 50 mg/L): 28.7 ppm
BOD Day 21 (reference substance 50 mg/L): 30.3 ppm
BOD Day 28 (reference substance 50 mg/L): 32.5 ppm
